Experimental data taken from US9149472B2, “Controlled release compositions for treatment of cognitive, emotional and mental ailments and disorders” (priority 2004, dated 2015).

System: symptoms of cognitive ailments
Details: Patient 3; one 10 mg daily in the morning

Q: With `CC(C)(O)c1ccccc1CC[C@@H](SCC1(CC(=O)[O-])CC1)c1cccc(/C=C/c2ccc3ccc(Cl)cc3n2)c1.[Na+]` [montelukast sodium] as the compound, how does the “focus and concentration at once daily dose” value read?
A: mild improvement in focus and concentration
